Reference: patent US20020162794A1, “Anaerobic digestion” (priority 2001, published 2002)
Several values for one entry are separate records, joined by “and”; a condition that tells them apart may be missing. Equal values may be shown once.

Tested on: mixed culture from a publicly owned anaerobic digester (domestic sewage sludge)
Assay: pH of laboratory batch anaerobic digester reactors

O=C[O-].[Na+] [sodium formate]
pH (1/4/99 run, 100 ppm, 0 Day): 5.3 | pH (1/4/99 run, 100 ppm, 15 days): 5.22 | pH (1/4/99 run, 100 ppm, 30 days): 5.54 | pH (1/4/99 run, 1250 ppm, 0 Day): 5.54 | pH (1/4/99 run, 1250 ppm, 15 days): 6.06 | pH (1/4/99 run, 1250 ppm, 30 days): 7.1 | pH (1/4/99 run, 2500 ppm, 0 Day): 5.69 | pH (1/4/99 run, 2500 ppm, 15 days): 6.29 | pH (1/4/99 run, 2500 ppm, 30 days): 7.2 | pH (1/4/99 run, 3750 ppm, 0 Day): 5.65 | pH (1/4/99 run, 3750 ppm, 15 days): 6.8 | pH (1/4/99 run, 3750 ppm, 30 days): 6.86 | pH (1/4/99 run, 5000 ppm, 0 Day): 5.63 | pH (1/4/99 run, 5000 ppm, 15 days): 7.01 | pH (1/4/99 run, 5000 ppm, 30 days): 7.06 | pH (1/4/99 run, 6250 ppm, 0 Day): 5.47 | pH (1/4/99 run, 6250 ppm, 15 days): 7.42 | pH (1/4/99 run, 6250 ppm, 30 days): 7.49 | pH (1/4/99 run, 7500 ppm, 0 Day): 5.54 | pH (1/4/99 run, 7500 ppm, 15 days): 7.7 | pH (1/4/99 run, 7500 ppm, 30 days): 7.67 | pH (1/4/99 run, 8750 ppm, 0 Day): 5.52 | pH (1/4/99 run, 8750 ppm, 15 days): 7.33 | pH (1/4/99 run, 8750 ppm, 30 days): 7.8 | pH (1/4/99 run, 10000 ppm, 0 Day): 5.44 | pH (1/4/99 run, 10000 ppm, 15 days): 5.82 | pH (1/4/99 run, 10000 ppm, 30 days): 8.06 | pH, Average (1/4/99 run, average 25 ppm (reactors 0, 0, 0, 100 ppm), 0 Day): 5.22 | pH, Average (1/4/99 run, average 25 ppm (reactors 0, 0, 0, 100 ppm), 15 days): 5.1325 | pH, Average (1/4/99 run, average 25 ppm (reactors 0, 0, 0, 100 ppm), 30 days): 5.345 | pH, Average (1/4/99 run, average 2500 ppm (1250, 2500, 3750 ppm), 0 Day): 5.627 | pH, Average (1/4/99 run, average 2500 ppm (1250, 2500, 3750 ppm), 15 days): 6.383 | pH, Average (1/4/99 run, average 2500 ppm (1250, 2500, 3750 ppm), 30 days): 7.053 | pH, Average (1/4/99 run, average 6250 ppm (5000, 6250, 7500 ppm), 0 Day): 5.547 | pH, Average (1/4/99 run, average 6250 ppm (5000, 6250, 7500 ppm), 15 days): 7.377 | pH, Average (1/4/99 run, average 6250 ppm (5000, 6250, 7500 ppm), 30 days): 7.407 | pH, Average (1/4/99 run, average 8750 ppm (7500, 8750, 10000 ppm), 0 Day): 5.5 | pH, Average (1/4/99 run, average 8750 ppm (7500, 8750, 10000 ppm), 15 days): 6.95 | pH, Average (1/4/99 run, average 8750 ppm (7500, 8750, 10000 ppm), 30 days): 7.843 | pH (7/1/99 run (Tables 2, 10), 1000 ppm, 0 Day (with formate), listed as Format): 5.21 and 5.22 and 5.3 | pH (7/1/99 run (Tables 2, 10), 1000 ppm, 0 Day (with formate), listed as Formate): 5.30 and 5.21 and 5.22 | pH (7/1/99 run (Tables 2, 10), 1000 ppm, 5 Day, listed as Format): 4.47 and 4.53 and 4.43 | pH (7/1/99 run (Tables 2, 10), 1000 ppm, 5 Day, listed as Formate): 4.43 and 4.47 and 4.53 | pH (7/1/99 run (Tables 2, 10), 1000 ppm, 2 days, listed as Format): 4.77 and 4.82 and 4.72 | pH (7/1/99 run (Tables 2, 10), 1000 ppm, 2 days, listed as Formate): 4.72 and 4.77 and 4.82 | pH (7/1/99 run (Tables 2, 10), 1000 ppm, 3 days, listed as Format): 4.57 and 4.66 and 4.52 | pH (7/1/99 run (Tables 2, 10), 1000 ppm, 3 days, listed as Formate): 4.52 and 4.57 and 4.66 | pH (7/1/99 run (Tables 2, 10), 1000 ppm, 7 days, listed as Format): 4.26 and 4.27 and 4.2 | pH (7/1/99 run (Tables 2, 10), 1000 ppm, 7 days, listed as Formate): 4.20 and 4.26 and 4.27 | pH (7/1/99 run (Tables 2, 10), 1000 ppm, 9 days, listed as Format): 4.13 and 4.16 and 4.06 | pH (7/1/99 run (Tables 2, 10), 1000 ppm, 9 days, listed as Formate): 4.06 and 4.13 and 4.16 | pH (7/1/99 run (Tables 2, 10), 1000 ppm, 17 days, listed as Format): 3.88 and 3.71 and 3.83 | pH (7/1/99 run (Tables 2, 10), 1000 ppm, 17 days, listed as Formate): 3.83 and 3.88 and 3.71 | pH (7/1/99 run (Tables 2, 10), 1000 ppm, 25 days, listed as Format): 3.68 and 3.61 and 3.53 | pH (7/1/99 run (Tables 2, 10), 1000 ppm, 25 days, listed as Formate): 3.53 and 3.68 and 3.61 | pH (7/1/99 run (Tables 2, 10), 1000 ppm, 55 days, listed as Format): 3.76 and 3.61 and 3.59 | pH (7/1/99 run (Tables 2, 10), 1000 ppm, 55 days, listed as Formate): 3.59 and 3.76 and 3.61 | pH (7/1/99 run (Tables 2, 10), 5000 ppm, 0 Day (with formate)): 5.08 | pH (7/1/99 run (Tables 2, 10), 5000 ppm, 5 Day): 4.76 | pH (7/1/99 run (Tables 2, 10), 5000 ppm, 2 days): 5.08 | pH (7/1/99 run (Tables 2, 10), 5000 ppm, 3 days): 4.85 | pH (7/1/99 run (Tables 2, 10), 5000 ppm, 7 days): 4.5 | pH (7/1/99 run (Tables 2, 10), 5000 ppm, 9 days): 4.37 | pH (7/1/99 run (Tables 2, 10), 5000 ppm, 17 days, listed as Format): 4 | pH (7/1/99 run (Tables 2, 10), 5000 ppm, 17 days, listed as Formate): 4.0 | pH (7/1/99 run (Tables 2, 10), 5000 ppm, 25 days): 3.99 | pH (7/1/99 run (Tables 2, 10), 5000 ppm, 55 days): 4.06 | pH (7/1/99 run (Tables 2, 10), 10000 ppm, 0 Day (with formate), listed as Format): 6.42 and 6.29 and 6.5 | pH (7/1/99 run (Tables 2, 10), 10000 ppm, 0 Day (with formate), listed as Formate): 6.50 and 6.42 and 6.29 | pH (7/1/99 run (Tables 2, 10), 10000 ppm, 5 Day, listed as Format): 5.25 and 5.1 and 5.19 | pH (7/1/99 run (Tables 2, 10), 10000 ppm, 5 Day, listed as Formate): 5.19 and 5.25 and 5.1 | pH (7/1/99 run (Tables 2, 10), 10000 ppm, 2 days, listed as Format): 5.64 and 5.49 and 5.51 | pH (7/1/99 run (Tables 2, 10), 10000 ppm, 2 days, listed as Formate): 5.51 and 5.64 and 5.49 | pH (7/1/99 run (Tables 2, 10), 10000 ppm, 3 days, listed as Format): 5.28 and 5.1 and 5.18 | pH (7/1/99 run (Tables 2, 10), 10000 ppm, 3 days, listed as Formate): 5.18 and 5.28 and 5.1 | pH (7/1/99 run (Tables 2, 10), 10000 ppm, 7 days, listed as Format): 5.01 and 4.97 and 4.78 | pH (7/1/99 run (Tables 2, 10), 10000 ppm, 7 days, listed as Formate): 4.78 and 5.01 and 4.97 | pH (7/1/99 run (Tables 2, 10), 10000 ppm, 9 days, listed as Format): 4.67 and 4.69 and 4.48 | pH (7/1/99 run (Tables 2, 10), 10000 ppm, 9 days, listed as Formate): 4.48 and 4.67 and 4.69 | pH (7/1/99 run (Tables 2, 10), 10000 ppm, 17 days, listed as Format): 4.21 and 4.55 | pH (7/1/99 run (Tables 2, 10), 10000 ppm, 17 days, listed as Formate): 4.21 and 4.55 | pH (7/1/99 run (Tables 2, 10), 10000 ppm, 25 days, listed as Format): 4.17 and 4.19 and 4.13 | pH (7/1/99 run (Tables 2, 10), 10000 ppm, 25 days, listed as Formate): 4.13 and 4.17 and 4.19 | pH (7/1/99 run (Tables 2, 10), 10000 ppm, 55 days, listed as Format): 4.25 and 4.21 | pH (7/1/99 run (Tables 2, 10), 10000 ppm, 55 days, listed as Formate): 4.21 and 4.25 | pH (7/1/99 run (Tables 2, 10), 100000 ppm, 0 Day (with formate), listed as Format): 7.54 and 7.75 | pH (7/1/99 run (Tables 2, 10), 100000 ppm, 0 Day (with formate), listed as Formate): 7.54 and 7.75 | pH (7/1/99 run (Tables 2, 10), 100000 ppm, 5 Day, listed as Format): 7.34 and 7.5 | pH (7/1/99 run (Tables 2, 10), 100000 ppm, 5 Day, listed as Formate): 7.34 and 7.5 | pH (7/1/99 run (Tables 2, 10), 100000 ppm, 2 days, listed as Format): 7.34 and 7.54 | pH (7/1/99 run (Tables 2, 10), 100000 ppm, 2 days, listed as Formate): 7.34 and 7.54 | pH (7/1/99 run (Tables 2, 10), 100000 ppm, 3 days, listed as Format): 7.33 and 7.46 | pH (7/1/99 run (Tables 2, 10), 100000 ppm, 3 days, listed as Formate): 7.33 and 7.46 | pH (7/1/99 run (Tables 2, 10), 100000 ppm, 7 days, listed as Format): 7.25 and 7.42 | pH (7/1/99 run (Tables 2, 10), 100000 ppm, 7 days, listed as Formate): 7.25 and 7.42 | pH (7/1/99 run (Tables 2, 10), 100000 ppm, 9 days, listed as Format): 7.27 and 7.42 | pH (7/1/99 run (Tables 2, 10), 100000 ppm, 9 days, listed as Formate): 7.27 and 7.42 | pH (7/1/99 run (Tables 2, 10), 100000 ppm, 17 days, listed as Format): 6.3 and 6.87 | pH (7/1/99 run (Tables 2, 10), 100000 ppm, 17 days, listed as Formate): 6.3 and 6.87 | pH (7/1/99 run (Tables 2, 10), 100000 ppm, 25 days, listed as Format): 6.01 and 6.72 | pH (7/1/99 run (Tables 2, 10), 100000 ppm, 25 days, listed as Formate): 6.01 and 6.72 | pH (7/1/99 run (Tables 2, 10), 100000 ppm, 55 days, listed as Format): 5.97 and 6.73 | pH (7/1/99 run (Tables 2, 10), 100000 ppm, 55 days, listed as Formate): 5.97 and 6.73 | pH, Average (7/1/99 run, 1000 ppm, average of 3 reactors, 0 Day): 5.243 | pH, Average (7/1/99 run, 1000 ppm, average of 3 reactors, 5 Day): 4.477 | pH, Average (7/1/99 run, 1000 ppm, average of 3 reactors, 2 days): 4.77 | pH, Average (7/1/99 run, 1000 ppm, average of 3 reactors, 3 days): 4.583 | pH, Average (7/1/99 run, 1000 ppm, average of 3 reactors, 7 days): 4.243 | pH, Average (7/1/99 run, 1000 ppm, average of 3 reactors, 9 days): 4.117 | pH, Average (7/1/99 run, 1000 ppm, average of 3 reactors, 17 days): 3.807 | pH, Average (7/1/99 run, 1000 ppm, average of 3 reactors, 25 days): 3.607 | pH, Average (7/1/99 run, 1000 ppm, average of 3 reactors, 55 days): 3.653 | pH, Average (7/1/99 run, 10000 ppm, average of 3 reactors, 0 Day): 6.403 | pH, Average (7/1/99 run, 10000 ppm, average of 3 reactors, 5 Day): 5.18 | pH, Average (7/1/99 run, 10000 ppm, average of 3 reactors, 2 days): 5.55 | pH, Average (7/1/99 run, 10000 ppm, average of 3 reactors, 3 days): 5.187 | pH, Average (7/1/99 run, 10000 ppm, average of 3 reactors, 7 days): 4.92 | pH, Average (7/1/99 run, 10000 ppm, average of 3 reactors, 9 days): 4.613 | pH, Average (7/1/99 run, 10000 ppm, average of 3 reactors, 17 days): 4.323 | pH, Average (7/1/99 run, 10000 ppm, average of 3 reactors, 25 days): 4.163 | pH, Average (7/1/99 run, 10000 ppm, average of 3 reactors, 55 days): 4.237 | pH, Average (7/1/99 run, 100000 ppm, average of 2 reactors, 0 Day): 7.645 | pH, Average (7/1/99 run, 100000 ppm, average of 2 reactors, 5 Day): 7.42 | pH, Average (7/1/99 run, 100000 ppm, average of 2 reactors, 2 days): 7.44 | pH, Average (7/1/99 run, 100000 ppm, average of 2 reactors, 3 days): 7.395 | pH, Average (7/1/99 run, 100000 ppm, average of 2 reactors, 7 days): 7.335 | pH, Average (7/1/99 run, 100000 ppm, average of 2 reactors, 9 days): 7.345 | pH, Average (7/1/99 run, 100000 ppm, average of 2 reactors, 17 days): 6.585 | pH, Average (7/1/99 run, 100000 ppm, average of 2 reactors, 25 days): 6.365 | pH, Average (7/1/99 run, 100000 ppm, average of 2 reactors, 55 days): 6.35 | pH of the mixed culture maintained at or near (spiked concentration levels exceeding 1000 ppm by mass): 6.8-7.4
